The list shows a part of the results. Shown are side measurements of this screen, not its main read-out; they come without a call. The list favours compounds with an active or inconclusive main result. Words in brackets tell the shape of the fitted curve; partial curves, single points and poor fits give uncertain potencies.
Assay: qHTS Assay for Lipid Storage Modulators in Drosophila S3 Cells;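 on cell number change: cells counted by Cell Tracker Red CMTPX staining in the red channel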
Conditions: BODIPY lipid droplet fluorescence, 18-24 h; for cell number change: measured here: cell count max response, cells fed with added oleic acid
In short: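 Drosophila S3 cells loaded with oleic acid (400 uM, as added) and compounds at several concentrations; lipid droplets imaged by 488-nm laser-scanning cytometry, 500–530 nm intensity and object ratio to cell channel. Percent activity normalized to 20 uM Triacsin C.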

[1] = measured here: cell number channel AC50, cells fed with added oleic acid
[2] = measured here: lipid fluorescence (Fed channel) AC50, cells fed with added oleic acid

| Compound | cell number change [%] | AC50 [1] | AC50 [2] |
| --- | --- | --- | --- |
| CCOC(=O)CNC(=S)SC | 5.57 | 6.51 µM [falling, single point] | – |
| O=C(CN1CCN(c2ccc(F)cc2)CC1)Nc1ccccc1 | 5.67 | – | – |
| CC1(C)Cc2c(sc(NC(=O)c3ccc4c(c3)OCCO4)c2C(N)=O)C(C)(C)N1 | -9.54 | – | – |
| N#C/C(=C\c1ccccc1[N+](=O)[O-])C(=O)NCc1ccccc1 | -6.11 | – | 29.1 µM [falling, single point] |
| COc1ccc2nc(-c3ccccc3)cc(C(=O)OCC(=O)NC3CC3)c2c1 | -102 | 32.6 µM [falling, partial curve, poor fit] | – |
| COc1ccc(NC(=O)C2CCCN2S(=O)(=O)c2ccc3c(c2)CCC(=O)N3)c(OC)c1 (centres undefined) | 19.8 | 0.058 µM [rising, full curve, poor fit] | 16.4 µM [rising, single point] |
| CCOc1cccc(-c2csc(C3COc4ccccc4O3)n2)c1 (centres undefined) | -4.15 | – | 20.6 µM [rising, single point] |
| NC(=O)/C(=N\O)c1ccccc1 | 14.1 | – | 29.1 µM [rising, single point] |
| CC1(C)NC(=O)N(CC(=O)N2CCN(c3cccc(Cl)c3)CC2)C1=O | 1.29 | – | 5.17 µM [rising, partial curve, poor fit] |
| Cc1ccn2c(CNCCCn3cccn3)c(C(=O)N3CCCCCC3)nc2c1 | 12.2 | – | 29.1 µM [rising, single point] |
| Cc1ccc2oc(=O)n(CC(=O)OCCC(C)C)c2c1 | -19.1 | – | 0.651 µM [falling, full curve, poor fit] |
| CCc1nc(N2CCC(C)CC2)c2oc3ccccc3c2n1 | -34.6 | 29.1 µM [falling, single point] | 0.103 µM [rising, full curve, poor fit] |
| COc1cc(CNCc2ccccc2C(F)(F)F)cc(OC)c1 | 36 | 0.0651 µM [rising, full curve, poor fit] | 0.206 µM [rising, full curve, poor fit] |
| CCN1C(=O)CS/C1=N\S(=O)(=O)c1ccc(C)cc1 | 22.8 | – | 20.6 µM [rising, single point] |
| N#Cc1c(N)c(C(=O)c2ccc(Cl)cc2)n2c1CCC2 | -22.2 | – | – |
| S=c1[nH]nc(COc2ccc(Cl)cc2)n1-c1ccccc1 | 12.4 | 0.00411 µM [rising, full curve, poor fit] | – |
| COc1cc(CCC(=O)OCC(=O)Nc2ccc(F)cc2F)cc(OC)c1OC | -2.78 | – | – |
| COc1ccccc1N1CCN(C2CCN(S(=O)(=O)c3ccc4ccccc4c3)CC2)CC1 | -31 | 6.51 µM [falling, partial curve, poor fit] | – |
| CC(C)C(=O)Nc1ccc(C(=O)NNC(=O)NC2CCCCC2)cc1 | -20.7 | – | 2.59 µM [falling, full curve] |
| CC(Oc1ccc2c3c(c(=O)oc2c1)CCCC3)C(=O)NCCCn1ccnc1 (centres undefined) | 0.298 | – | 20.6 µM [rising, single point] |
| CCOC(=O)c1cc(-c2ccccc2)sc1NC(=O)COC(=O)c1cccc(S(N)(=O)=O)c1 | -15.9 | 2.06 µM [falling, single point] | 20.6 µM [falling, single point] |

| Compound | cell number change [%] | AC50 [1] | AC50 [2] |
| --- | --- | --- | --- |
| CCOc1ccc(/C=N/NS(=O)(=O)c2ccc(C)cc2)cc1OC | -8.77 | – | – |
| COc1ccc(S(=O)(=O)N2CCOCC2)cc1C(=O)N(C)Cc1ccccc1F | -34.1 | 0.0058 µM [falling, full curve, poor fit] | 16.4 µM [falling, single point] |
| COC(=O)C1=CN(CCOC23CC4CC(CC(C4)C2)C3)C=C(C(=O)OC)C1c1ccsc1 | -12.6 | 0.58 µM [falling, partial curve, poor fit] | – |
| COc1cc([N+](=O)[O-])ccc1NC(=O)CSc1n[nH]c(C(C)C)n1 | -18.3 | – | – |
| Cc1ccc(NC(=S)N(CCN(C)C)C(C)c2ccco2)cc1Cl (centres undefined) | – | – | 6.51 µM [rising, single point] |
| CC(=O)Nc1ccc(NC(=O)CSc2nnc(-c3ccco3)o2)cc1 | -3.49 | 0.13 µM [falling, full curve, poor fit] | – |
| CC(C)c1ccc(OCC(=O)N(Cc2ccccc2)c2ccccn2)cc1 | 7.65 | – | – |
| COc1ccc(CCNC(=O)C(Sc2ccccn2)c2ccccc2)cc1OC (centres undefined) | -14.1 | – | 7.31 µM [falling, partial curve] |
| CC(=O)N1c2ccccc2N(Cc2ccc(C)cc2C)C(=O)C1(C)C | 5.71 | – | 0.146 µM [rising, full curve, poor fit] |
| CCN(CC)c1ccc(NC(=O)C2CC3CCC2C3)cc1 (centres undefined) | -8.47 | – | – |
| CC(C)P(=O)(Cc1cccc(C#N)c1)C(C)C | -47.7 | 5.8 µM [falling, full curve] | 5.8 µM [falling, full curve] |
| COc1cccc(NC(=O)NC2CCN(Cc3nnnn3Cc3ccc4c(c3)OCO4)CC2)c1 | 20 | – | 9.2 µM [rising, partial curve] |
| Cc1cccc(NC(=O)Cn2c(=O)oc3cc(S(=O)(=O)N4CCCC4)ccc32)n1 | 13.8 | – | – |
| CCCCC(C(=O)NC1CCCC1)N(C(=O)c1snc(C(N)=O)c1N)c1ccc(C)cc1 (centres undefined) | 21.3 | – | – |
| Cc1noc(C)c1S(=O)(=O)N1CCN(c2ccccc2)CC1 | -41.1 | 32.6 µM [falling, single point] | – |
| COC(=O)c1sccc1N(C)S(C)(=O)=O | -3.69 | 0.58 µM [falling, full curve] | 0.58 µM [falling, full curve] |
| Cc1nn(C)cc1NC(=O)CCSc1nc(-c2ccco2)cc(C(F)(F)F)n1 | 149 | 0.517 µM [rising, single point] | 0.58 µM [rising, single point] |
| O=C(Nc1ccccc1)N(CCCN1CCOCC1)Cc1ccccc1F | -0.885 | – | – |
| Cc1cc(C)n(-c2ccc(C(=O)OCC(=O)Nc3cc(S(C)(=O)=O)ccc3Cl)cc2)n1 | -4.65 | – | – |
| CCOc1ccc(NC(C)=O)cc1N | 26.6 | – | 2.06 µM [rising, partial curve] |
| CCN(CC)S(=O)(=O)c1cc(NC(=O)CN2C(=O)NC3(CCCc4ccccc43)C2=O)ccc1C (centres undefined) | 28.7 | – | 5.17 µM [rising, partial curve] |

Record cards, as listed above:
COC(=O)c1sccc1N(C)S(C)(=O)=O is listed as cell number change [%]: -3.69; AC50 [1]: 0.58 µM [falling, full curve]; AC50 [2]: 0.58 µM [falling, full curve]
CCN(CC)c1ccc(NC(=O)C2CC3CCC2C3)cc1 (centres undefined) is listed as cell number change [%]: -8.47

An excerpt from above in order of count of non-hydrogen atoms, low to high:

| Compound | cell number change [%] | AC50 [1] | AC50 [2] |
| --- | --- | --- | --- |
| CCOc1ccc(NC(C)=O)cc1N | 26.6 | – | 2.06 µM [rising, partial curve] |
| COC(=O)c1sccc1N(C)S(C)(=O)=O | -3.69 | 0.58 µM [falling, full curve] | 0.58 µM [falling, full curve] |
| CC(C)P(=O)(Cc1cccc(C#N)c1)C(C)C | -47.7 | 5.8 µM [falling, full curve] | 5.8 µM [falling, full curve] |

Next compounds follow:

| Compound | cell number change [%] | AC50 [1] | AC50 [2] |
| --- | --- | --- | --- |
| Cc1ccc(NCc2ccccc2O)cc1C | -29.3 | – | 32.6 µM [falling, single point] |
| O=C(O)c1cccc2c1C(=O)c1ccc(N3CCCCC3)cc1S2(=O)=O | 10.8 | – | 29.1 µM [rising, partial curve, poor fit] |
| COc1cccc(N(C(=O)Cn2nnc3ccccc32)C(C(=O)NCc2ccco2)c2cccnc2)c1 (centres undefined) | 37 | 1.16 µM [rising, partial curve] | 4.11 µM [rising, full curve] |
| CCOC(=O)N1CCC(=NNC(=O)c2cc3ccccc3cc2O)CC1 | -66.7 | 0.116 µM [falling, full curve] | – |
| CC1CCCC(C)N1C(=O)COC(=O)c1cc([N+](=O)[O-])ccc1N1CCOCC1 (centres undefined) | 48.4 | 29.1 µM [rising, single point] | – |
| Cn1c(CNC(=O)c2ccc(Cl)cc2)nnc1SCC(=O)N1CCOCC1 | 15.3 | – | – |
| O=C1CCCN2N=C(SCC(=O)Nc3cccc(C(F)(F)F)c3)SC2=N1 | -32.4 | 3.26 µM [falling, full curve] | – |
| Cn1cnc([N+](=O)[O-])c1Oc1ccc2ccccc2c1 | -8.68 | – | 6.51 µM [falling, full curve, poor fit] |
| COc1ccc(C2=NN(C(=O)CCCC(=O)O)C(c3cn(-c4ccccc4)nc3-c3ccccc3)C2)cc1 (centres undefined) | -3.14 | 2.59 µM [rising, single point] | 6.51 µM [rising, single point] |
| O=C(/C=C/c1ccccc1)Nc1cc(C(=O)O)cc(C(=O)O)c1 | 24.6 | – | 0.651 µM [rising, full curve, poor fit] |
| CS(=O)(=O)c1ccc(-c2cccc(NC(=O)COc3ccc(Cl)cc3)c2)nn1 | 58.5 | 14.6 µM [rising, single point] | 0.82 µM [falling, single point] |
| COc1ccc(/C=C/C(=O)c2cc(Br)ccc2OC(=O)c2ccco2)cc1OC | -45.5 | 11.6 µM [falling, partial curve] | 20.6 µM [falling, partial curve] |
| COc1cccc(C(=O)Nc2cccc(SC)c2)c1 | 6.05 | – | 29.1 µM [rising, single point] |
| Cc1cc(C)cc(NC(=O)N2CCC(c3nc4ccccc4o3)CC2)c1 | – | 0.116 µM [rising, full curve] | – |
| Cc1cc(=O)[nH]c(SCC(=O)Nc2ccc(Cl)cn2)n1 | 121 | 23.1 µM [rising, single point] | – |
| COc1ccc(C2=C3C(=O)OCC3Cc3ncn(Cc4ccccc4)c32)cc1 (centres undefined) | 22.8 | – | 0.146 µM [falling, single point] |
| O=C(NCCc1nnc2ccc(SCC(=O)N3CCCC3)nn12)c1ccc(F)cc1 | -31.2 | 0.461 µM [rising, single point] | 0.82 µM [falling, full curve] |
| COc1ccc(C(=O)N2CCN(C)C(=O)[C@@H]2C)cc1OC1CCN(C(C)=O)CC1 | – | – | 32.6 µM [falling, single point] |
| COc1ccc(C(=O)NC(C)c2cc(OC)c(OC)cc2Br)cc1 (centres undefined) | 44.8 | 6.51 µM [falling, single point] | – |

— PubChem BioAssay AID2685 (National Center for Advancing Translational Sciences (NCATS), 2010)
